# PubChem BioAssay (EPA / NIEHS)
# Chains of the proteins cited; added tags and fusions are not shown.
# UniProt P19785, whole entry, looked up: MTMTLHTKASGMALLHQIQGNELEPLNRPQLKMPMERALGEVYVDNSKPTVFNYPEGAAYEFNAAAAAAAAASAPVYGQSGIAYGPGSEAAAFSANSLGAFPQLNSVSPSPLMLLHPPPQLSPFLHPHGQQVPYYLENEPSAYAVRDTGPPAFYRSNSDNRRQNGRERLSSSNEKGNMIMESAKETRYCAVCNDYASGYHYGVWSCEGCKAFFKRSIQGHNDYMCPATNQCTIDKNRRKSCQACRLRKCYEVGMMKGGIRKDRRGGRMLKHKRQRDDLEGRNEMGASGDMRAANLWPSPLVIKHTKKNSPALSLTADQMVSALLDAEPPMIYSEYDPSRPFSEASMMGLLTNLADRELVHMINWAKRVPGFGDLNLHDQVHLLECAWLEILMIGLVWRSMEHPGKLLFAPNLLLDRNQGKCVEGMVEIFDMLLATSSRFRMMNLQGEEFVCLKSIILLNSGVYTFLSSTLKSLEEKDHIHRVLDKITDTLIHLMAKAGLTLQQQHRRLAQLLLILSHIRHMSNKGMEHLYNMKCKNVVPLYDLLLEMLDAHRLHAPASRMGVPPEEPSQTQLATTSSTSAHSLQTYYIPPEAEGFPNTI
# This list was built around the results that the source calls inconclusive (neither active nor inactive); the mix of calls is not that of the screen. Potencies beside an inconclusive call are fits to weak or partial responses and may not hold up. Active and inactive are the calls of the source. How the source made its calls: active means hit-call score of the fitted dose curve at least 0.9, where 1 is the maximum; inconclusive means response in the unintended direction; inactive means score below 0.9.
# Molecular target: mouse Estrogen Receptor alpha (Era), Esr1 (gene 13982) (UniProt P19785)
# Assay: NVS_NR_mERa: NovaScreen (NVS) Nuclear Receptor Binding Assay for mouse Estrogen Receptor alpha (Era) (AID 2283378);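 further: hit means loss of bound radioligand signal relative to DMSO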
# Procedure, shortened: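 Extracted mouse Era incubated with tritiated or iodinated radioligand plus test chemical, 18 h. Bound fraction separated on filters, counted by scintillation. DMSO = negative control/baseline; duplicate single-point at 25 uM, then concentration-response follow-up.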
SMILES,AC50,outcome
C=C(c1ccc(C(=O)O)cc1)c1cc2c(cc1C)C(C)(C)CCC2(C)C,inconclusive: 25 µM,–
CCCCCCCCCCCCCCCC[N+](C)(C)Cc1ccccc1,inconclusive: 2.46 µM,–
Nc1ccc([N+](=O)[O-])cc1O,inconclusive: 45.4 µM,–
CC1(C)CC(=O)CC(C)(C)N1,inconclusive: 25 µM,–
CC(=O)[C@H]1[C@H](C#N)C[C@H]2[C@@H]3CC=C4C[C@@H](O)CC[C@]4(C)[C@H]3CC[C@@]21C,active: 4.26 µM,–
Cc1cccc(N)n1,inconclusive: 25 µM,–
CCCc1cc(=O)[nH]c(=S)[nH]1,–,inactive
COCC(C)O (configuration not stated),active: 11.5 µM,–
C=CC(=O)OCCCCCCOC(=O)C=C,inconclusive: 25 µM,–
Oc1ccc(/C=C/c2cc(O)cc(O)c2)cc1,inconclusive: 25 µM,–
CCCCCCCCCCCCCCCCCC(=O)O,inconclusive: 25 µM,–
CC1=CCC2C(C1)C2(C)C (configuration not stated),inconclusive: 25 µM,–
Cc1c(C)c2c(c(C)c1O)CCC(C)(COc1ccc(CC3SC(=O)NC3=O)cc1)O2 (configuration not stated),inconclusive: 43.4 µM,–
S=P(N1CC1)(N1CC1)N1CC1,inconclusive: 45 µM,–
CCOC(=O)/C=C\C(=O)OCC,inconclusive: 25 µM,–
CCCCCCCCN(C)CCCCCCCC,–,inactive
CCCCCC(C)OC(=O)COc1ccc(Cl)c2cccnc12 (configuration not stated),inconclusive: 41.7 µM,–
O=C(Nc1ccccc1SSc1ccccc1NC(=O)c1ccccc1)c1ccccc1,inconclusive: 41.3 µM,–
O=S(=O)(O)c1ccc(Nc2nc(Nc3ccc(C=Cc4ccc(Nc5nc(Nc6ccc(S(=O)(=O)O)cc6)nc(N(CCO)CCO)n5)cc4S(=O)(=O)O)c(S(=O)(=O)O)c3)nc(N(CCO)CCO)n2)cc1,inconclusive: 16.4 µM,–

# In a second layout: results already given.
SMILES	AC50	outcome
COCC(C)O (configuration not stated)	active: 11.5 µM	–
Cc1c(C)c2c(c(C)c1O)CCC(C)(COc1ccc(CC3SC(=O)NC3=O)cc1)O2 (configuration not stated)	inconclusive: 43.4 µM	–
CCOC(=O)/C=C\C(=O)OCC	inconclusive: 25 µM	–

# Carrying on.

SMILES,AC50,outcome
CCCCCCCCCCCCCCCC[N+](C)(C)CC,inconclusive: 39.5 µM,–
CCCCCCCCCCCC(=O)N(C)CC(=O)O,inconclusive: 0.793 µM,–
CN(C)c1ccc(C(=N)c2ccc(N(C)C)cc2)cc1,–,inactive
O=C(O)CCSCCC(=O)O,–,inactive
OCC(CO)n1cnc(-c2ccc(F)cc2)c1-c1ccnc(Oc2ccccc2)n1,–,inactive
CC(=O)c1ccc2c(c1)CCCC2,inconclusive: 45.8 µM,–
N=C1C=CC(=C(c2ccc(N)cc2)c2ccc(N)cc2)C=C1,inconclusive: 5.19 µM,–
O=C1C=CC(=O)N1c1ccc(Cc2ccc(N3C(=O)C=CC3=O)cc2)cc1,inconclusive: 12.4 µM,–
O=Cc1ccccc1C=O,inconclusive: 25 µM,–
Cc1ccc(-c2cc(C(F)(F)F)nn2-c2ccc(S(N)(=O)=O)cc2)cc1,–,inactive
NC(=O)N1c2ccccc2C=Cc2ccccc21,–,inactive
Nc1cccc(S(=O)(=O)c2cccc(N)c2)c1,inconclusive: 0.515 µM,–
C=CC(=O)OCCOC(=O)C=C,inconclusive: 0.152 µM,–
CCCC(=O)c1cc(O)c(O)cc1O,inconclusive: 0.885 µM,–
CC(C)C(C)(C)C(C)(C)C(C)(C)S,inconclusive: 46 µM,–
C=C(C)C(=O)OCCC(F)(F)C(F)(F)C(F)(F)C(F)(F)C(F)(F)C(F)(F)F,–,inactive
CN(C)CCC=C1c2ccccc2CCc2ccccc21,–,inactive
C=C[C@](C)(O)CC[C@@H]1[C@@]2(C)CCCC(C)(C)[C@@H]2CC[C@@]1(C)O,–,inactive
